Some entries share one result that the patent states for a list of compounds.
Tests used:
Assay type in all cases: cell-based, mammalian
[1] = system: Huh7 cells; assay: NAD+ measurement in Huh7 cells using NAD/NADH-Glo Assay kit; settings: 8 hours post dose, FIG. 3
[2] = system: HepG2 cells; assay: NAD+ measurement in HepG2 cells using NAD/NADH-Glo Assay kit; settings: 24 hours post dose, FIG. 4
[3] = system: AML12 cells; assay: NAD+ measurement in AML12 cells using NAD/NADH-Glo Assay kit; settings: AML12 cells treated for 16 hours; Promega NAD-glo assay kit; FIGS. 1 and 2

C[C@H](NP(=O)(OC[C@H]1O[C@@H]([n+]2cccc(C(N)=O)c2)[C@H](O)[C@@H]1O)Oc1ccccc1)C(=O)OC1CCCCC1.[Cl-] (stereo partly drawn) [Compound 8, 3-Carbamoyl-1-((2R,3R,4S,5R)-5-((((((S)-1-(cyclohexyloxy)-1-oxopropan-2-yl)-amino)(phenoxy)phosphoryl)oxy)methyl)-3,4-dihydroxytetrahydrofuran-2-yl)-pyridin-1-ium chloride]
increase: NAD+ levels in Huh7 cells [1] | NAD+ levels in HepG2 cells [2] | NAD+ levels in AML12 cells [3]

C[C@H](NP(=O)(OC[C@H]1O[C@@H](N2C=CCC(C(N)=O)=C2)C(O)C1O)Oc1ccccc1)C(=O)OC1CCCCC1 (stereo partly drawn) [Compound 5, (2S)-Cyclohexyl2-(((((2R,3S,4R,5R)-5-(3-carbamoylpyridin-1(4H)-yl)-3,4-dihydro-xytetrahydrofuranyl)methoxy)(phenoxy)phosphoryl)amino)propanoate]
increase: NAD+ levels in Huh7 cells [1] | NAD+ levels in HepG2 cells [2] | NAD+ levels in AML12 cells [3]

COC(=O)[C@H](C)NP(=O)(OC[C@H]1O[C@@H]([n+]2cccc(C(N)=O)c2)[C@H](O)[C@@H]1O)Oc1ccccc1.[Cl-] (stereo partly drawn) [Compound 7, 3-Carbamoyl-1-((2R,3R,4S,5R)-3,4-dihydroxy-5-((((((S)-1-methoxy-1-oxopropan-2-yl)amino)(phenoxy)phosphoryl)oxy)methyl)tetrahydrofuran-2-yl)pyridin-1-ium chloride]
increase: NAD+ levels in Huh7 cells [1] | NAD+ levels in HepG2 cells [2] | NAD+ levels in AML12 cells [3]

COC(=O)[C@H](C)NP(=O)(OC[C@H]1O[C@@H](N2C=CCC(C(N)=O)=C2)[C@H](O)[C@@H]1O)Oc1ccccc1 (stereo partly drawn) [Compound 4, Methyl ((((2R,3S,4R,5R)-5-(3-carbamoylpyridin-1(4H)-yl)-3,4-dihydroxytetrahydrofuran-2-yl)methoxy)(phenoxy)phosphoryl)-L-alaninate]
increase: NAD+ levels in Huh7 cells [1] | NAD+ levels in HepG2 cells [2] | NAD+ levels in AML12 cells [3]

CC(C)OC(=O)[C@H](C)NP(=O)(OC[C@H]1O[C@@H](N2C=CCC(C(N)=O)=C2)[C@H](O)[C@@H]1O)Oc1ccccc1 (stereo partly drawn) [Compound 6, (2S)-Isopropyl2-(((((2R,3S,4R,5R)-5-(3-carbamoylpyridin-1(4H)-yl)-3,4-dihydroxy-tetrahydrofuranyl)methoxy)(phenoxy)phosphoryl)amino)propanoate]
increase: NAD+ levels in Huh7 cells [1] | NAD+ levels in HepG2 cells [2] | NAD+ levels in AML12 cells [3]

COC(=O)[C@H](C)NP(=O)(OC[C@H]1O[C@@H]([n+]2cccc(C(N)=O)c2)[C@H](O)[C@@H]1O)Oc1ccccc1 (stereo partly drawn) [Compound 2, 3-Carbamoyl-1-((2R,3R,4S,5R)-3,4-dihydroxy-5-((((((S)-1-methoxy-1-oxopropan-2-yl)amino)(phenoxy)phosphoryl)oxy)methyl)tetrahydrofuran-2-yl)pyridin-1-ium trifluoromethanesulfonate]
increase: NAD+ levels in Huh7 cells [1] | NAD+ levels in HepG2 cells [2] | NAD+ levels in AML12 cells [3]

C[C@H](NP(=O)(OC[C@H]1O[C@@H]([n+]2cccc(C(N)=O)c2)[C@H](O)[C@@H]1O)Oc1ccccc1)C(=O)OC1CCCCC1 (stereo partly drawn) [Compound 3, 3-Carbamoyl-1-((2R,3R,4S,5R)-5-((((((S)-1-(cyclohexyloxy)-1-oxopropan-2-yl)amino)(phenoxy)phosphoryl)oxy)methyl)-3,4-dihydroxytetrahydrofuran-2-yl)pyridin-1-ium trifluoromethanesulfonate]
increase: NAD+ levels in Huh7 cells [1] | NAD+ levels in HepG2 cells [2] | NAD+ levels in AML12 cells [3]

CC(C)OC(=O)[C@H](C)NP(=O)(OC[C@H]1O[C@@H]([n+]2cccc(C(N)=O)c2)[C@H](O)[C@@H]1O)Oc1ccccc1.[Cl-] (stereo partly drawn) [Compound 9, 3-Carbamoyl-1-((2R,3R,4S,5R)-3,4-dihydroxy-5-((((((S)-1-isopropoxy-1-oxopropan-2-yl)amino)(phenoxy)phosphoryl)oxy)methyl)tetrahydrofuran-2-yl)pyridin-1-ium chloride]
increase: NAD+ levels in Huh7 cells [1] | NAD+ levels in HepG2 cells [2] | NAD+ levels in AML12 cells [3]

Source: patent US10611790B2, “Nicotinamide riboside and nicotinamide mononucleotide derivatives for use in the treatments of mitochondrial-related diseases” (Mitobridge, Inc., priority 2015, dated 2020)
